In PMC6927325:
Results are given in words; binding and its absence hold for the method and conditions named. For some of these results: Binding can be weak; no strength is given.

Legend:
Test in all cases: peptide or protein array; peptides synthesized on a cellulose membrane, blotted with GST-PTBi; anti-GST Far-Western to detect the bound protein; both purified
[1] = target: T1, ALK peptide F1577…1587 on a cellulose membrane
T1 sequence (peptide): FPCGNVNYGYQ

[2] = target: T2, ALK peptide P1499…1509 on a cellulose membrane
T2 sequence (peptide): PTSLWNPTYGS

[3] = target: T3, ALK peptide M1099…1109 on a cellulose membrane
T3 sequence (peptide): MTDYNPNYCFA

[4] = target: T4, ALK peptide G1473…1483 on a cellulose membrane
T4 sequence (peptide): GGHVNMAFSQS

binding [1]: binds | binding [2]: no binding | binding [3]: no binding | binding [4]: binds
Substance: GST-fused NUMB PTB domain with the exon 3 insert (11 aa) (domain or fragment)
